# In patent US20260274875A1, “[…] COMPOUNDS, PREPARATION METHOD AND USE THEREOF” (HC SYNTHETIC PHARMACEUTICAL CO., LTD., priority 2022, published 2026):
# System: histamine-induced asthma in guinea pigs
# Test: Antiasthmatic effect on histamine-induced asthma in guinea pigs
# Type: in vivo, guinea pig
# Settings: 60 min after 1 mg/kg oral gavage; histamine hydrochloride spray; no asthma within 8 min counted as 8 min; X ± s, n = 5
# Description: The time point at which the guinea pigs developed asthma was recorded. The time of convulsion and fall was taken as the latency period. Guinea pigs with a latency period exceeding 180 seconds were not selected. […] The guinea pigs were administered by oral gavage at a dose of 2 mL/kg·bw. Sixty minutes after the administration, the guinea pigs were placed in bell jars, and histamine hydrochloride solution was sprayed under the same conditions as in the previous selection. The latency period for the onset of asthma was recorded. […] The results were processed statistically.
smiles,measurement,value
"Clc1ccc2c(c1)CCc1cccnc1C2=C1CCNCC1 [Desloratadine, reference compound]",Post-administration latency period,268.33 ± 57.12 s
